Data as given in PubChem BioAssay AID1508588 (Peter MacCallum Cancer Centre, 2020).
Aim: 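Knock-downs boosting vemurafenib effects on melanoma cell growth or lactate release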 (primary screen). System: human WM266.4 melanoma cells (BRAF V600 mutant). Reagents: siRNA pool against human genes, 40 nM. Timing: 96 h from transfection to read-out. Treatment: vemurafenib 300 nM (about IC25), added 48 h after transfection, for 48 h; comparison arm got DMSO vehicle only. Detection: 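Cell gain (DAPI nuclei at end minus before drug, mean of two replicates) and medium lactate by absorbance per cell, both as ratio to non-targeting siRNA, also grouped into fold-change classes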. Scale: cell gain with vemurafenib: higher = more cell gain than with non-targeting siRNA; lactate per cell with vemurafenib: higher = more lactate made per cell. Rule for the call: 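a knock-down counts as enhancing when its fold-change classes with vehicle and with vemurafenib, taken together, show a stronger drug effect on cell gain or lactate per cell; exact class pairs not stated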. Meaning of the calls: active = enhances vemurafenib effect; inactive = no enhancement seen.
Here is an unselected part of about 18,000 reagents. 790 of all reagents (4.4%) were called active. 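Calls rest on a combination of fold-change classes in drug and vehicle arms, not all shown here.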

Which result is listed for AURKAIP1 (aurora kinase A interacting protein 1)?
cell gain with vemurafenib: 0.74; lactate per cell with vemurafenib: 1.56; activity call: inactive

How did the screen score GPX6 (glutathione peroxidase 6)?
cell gain with vemurafenib: 0.5; lactate per cell with vemurafenib: 0.44; activity call: inactive

How did the screen score DNAL1 (dynein axonemal light chain 1)?
cell gain with vemurafenib: 0.67; lactate per cell with vemurafenib: 1.31; activity call: inactive

How did the screen score HACL1 (2-hydroxyacyl-CoA lyase 1)?
cell gain with vemurafenib: 0.5; lactate per cell with vemurafenib: 0.55; activity call: inactive

What did the screen give for LNX1 (ligand of numb-protein X 1)?
cell gain with vemurafenib: 0.7; lactate per cell with vemurafenib: 0.6; activity call: inactive

What is on record for PGM5 (phosphoglucomutase 5)?
cell gain with vemurafenib: 0.64; lactate per cell with vemurafenib: 0.56; activity call: inactive

2 successive reagents from above:
LNX1 (ligand of numb-protein X 1): cell gain with vemurafenib = 0.7; lactate per cell with vemurafenib = 0.6; activity call = inactive
PGM5 (phosphoglucomutase 5): cell gain with vemurafenib = 0.64; lactate per cell with vemurafenib = 0.56; activity call = inactive

Further reagents follow.
What is on record for PALS1 (protein associated with LIN7 1, MAGUK p55 family member)?
cell gain with vemurafenib: 0.89; lactate per cell with vemurafenib: 0.52; activity call: inactive

Which result is listed for TGDS (TDP-glucose 4,6-dehydratase)?
cell gain with vemurafenib: 0.62; lactate per cell with vemurafenib: 1.23; activity call: inactive

For C2 (complement C2), what was measured?
cell gain with vemurafenib: 0.73; lactate per cell with vemurafenib: 0.82; activity call: inactive

For PLD1 (phospholipase D1), what was measured?
cell gain with vemurafenib: 0.92; lactate per cell with vemurafenib: 0.86; activity call: inactive

Which result is listed for GAS2 (growth arrest specific 2)?
cell gain with vemurafenib: 0.71; lactate per cell with vemurafenib: 1.19; activity call: inactive

With AAMP (angio associated migratory cell protein), how do the results read?
cell gain with vemurafenib: 0.39; lactate per cell with vemurafenib: 0.82; activity call: inactive

Which result is listed for PQBP1 (polyglutamine binding protein 1)?
cell gain with vemurafenib: 0.57; lactate per cell with vemurafenib: 0.66; activity call: inactive

For CAPS2 (calcyphosine 2), how do the results read?
cell gain with vemurafenib: 0.97; lactate per cell with vemurafenib: 0.88; activity call: inactive

For CCDC71L (coiled-coil domain containing 71 like), what does the deposit list?
cell gain with vemurafenib: 0.54; lactate per cell with vemurafenib: 0.2; activity call: active

Which result is listed for RAB5IF (RAB5 interacting factor)?
cell gain with vemurafenib: 0; lactate per cell with vemurafenib: 0; activity call: inactive
